These are yes or no findings as the source states them, for the method shown. In cells and extracts the contact can be indirect. Some results given as binding are weak or reduced against the parent protein; the word gives no strength.
Target: T1, mitochondrial uncoupling protein-2 (mouse (endogenous in murine neocortical neurons)) (UniProt P70406)
T1 sequence: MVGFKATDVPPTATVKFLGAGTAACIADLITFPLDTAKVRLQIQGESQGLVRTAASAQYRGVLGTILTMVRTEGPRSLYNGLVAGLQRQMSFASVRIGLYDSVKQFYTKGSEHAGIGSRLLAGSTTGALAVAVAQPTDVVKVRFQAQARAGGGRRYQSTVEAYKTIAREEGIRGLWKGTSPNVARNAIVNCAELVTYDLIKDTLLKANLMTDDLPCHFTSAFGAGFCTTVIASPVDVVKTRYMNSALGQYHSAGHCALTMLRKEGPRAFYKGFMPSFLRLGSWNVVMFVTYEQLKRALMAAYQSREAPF
Assay: co-IP; lysate of murine neocortical neurons cultured for 8 days (lysis buffer with 1% Nonidet P-40); incubation with the anti-UCP2 antibody for 16 h at 4°C; washed 3 times with 20 mM Tris-HCl (pH 7.5), 137 mM NaCl; immunoblot for GluN2A and GluN2B; cells exposed to ethanol at 50 mM to 1 M for 20 min before lysis

Protein sequences, listed by entry. Tags and fused reporters are not part of them. Residues count along the entry.
UniProt Q01097, residues 27-1482: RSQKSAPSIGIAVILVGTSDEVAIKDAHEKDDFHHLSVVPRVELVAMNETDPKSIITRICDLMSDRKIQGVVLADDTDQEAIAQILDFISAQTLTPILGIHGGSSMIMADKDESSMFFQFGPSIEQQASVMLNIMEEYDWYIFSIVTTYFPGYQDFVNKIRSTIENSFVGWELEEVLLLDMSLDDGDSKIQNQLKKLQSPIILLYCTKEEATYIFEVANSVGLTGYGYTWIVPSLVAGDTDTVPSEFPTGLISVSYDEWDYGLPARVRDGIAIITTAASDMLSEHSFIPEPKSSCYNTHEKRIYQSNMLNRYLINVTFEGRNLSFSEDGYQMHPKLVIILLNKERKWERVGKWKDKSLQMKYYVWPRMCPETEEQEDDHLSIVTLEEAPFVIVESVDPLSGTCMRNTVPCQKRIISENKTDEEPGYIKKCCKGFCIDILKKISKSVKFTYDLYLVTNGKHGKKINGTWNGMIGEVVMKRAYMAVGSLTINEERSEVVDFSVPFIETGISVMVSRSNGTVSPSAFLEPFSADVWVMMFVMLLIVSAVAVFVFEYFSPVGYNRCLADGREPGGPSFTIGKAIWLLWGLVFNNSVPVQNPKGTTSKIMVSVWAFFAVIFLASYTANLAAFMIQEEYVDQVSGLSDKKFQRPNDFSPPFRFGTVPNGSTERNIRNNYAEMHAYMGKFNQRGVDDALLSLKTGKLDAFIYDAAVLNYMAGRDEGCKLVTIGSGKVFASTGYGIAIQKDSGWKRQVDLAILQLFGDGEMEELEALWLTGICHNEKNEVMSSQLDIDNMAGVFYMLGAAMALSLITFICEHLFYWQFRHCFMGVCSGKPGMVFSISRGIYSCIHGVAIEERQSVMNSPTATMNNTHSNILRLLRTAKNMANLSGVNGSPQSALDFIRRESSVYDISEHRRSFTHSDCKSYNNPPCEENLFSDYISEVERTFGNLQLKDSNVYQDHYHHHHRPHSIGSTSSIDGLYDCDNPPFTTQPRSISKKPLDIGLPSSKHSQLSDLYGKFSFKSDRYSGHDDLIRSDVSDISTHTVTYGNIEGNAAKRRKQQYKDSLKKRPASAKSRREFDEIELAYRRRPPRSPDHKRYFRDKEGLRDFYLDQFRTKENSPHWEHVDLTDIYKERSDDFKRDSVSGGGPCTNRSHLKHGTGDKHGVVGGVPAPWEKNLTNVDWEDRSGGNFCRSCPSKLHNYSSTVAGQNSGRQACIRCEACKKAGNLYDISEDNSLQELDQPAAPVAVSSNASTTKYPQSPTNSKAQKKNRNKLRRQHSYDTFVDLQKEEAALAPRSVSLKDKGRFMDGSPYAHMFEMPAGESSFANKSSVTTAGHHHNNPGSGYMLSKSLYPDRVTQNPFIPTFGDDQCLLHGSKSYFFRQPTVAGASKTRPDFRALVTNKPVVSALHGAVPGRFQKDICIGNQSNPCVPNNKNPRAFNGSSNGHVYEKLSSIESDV

| binding | Substance |
| --- | --- |
| binds | N-methyl-D-aspartate receptor GluN2A subunit (from UniProt P35436 23-1464) |
| binds | N-methyl-D-aspartate receptor GluN2B subunit (from UniProt Q01097 27-1482) |
